Measurements reported in PubChem BioAssay AID1259299 (Sanger Institute, 2017).
Purpose: 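Essential genes and drug-synergistic partners among kinases and colorectal mutation genes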 (primary screen). System: human CAR1 colorectal cancer cells. Reagent: siRNA pool against human genes. Challenge: anchor drug BYL719 1 µM, cetuximab 5 µg/ml or trametinib 10 nM, or DMSO vehicle alone; exposure length not given. Measurement: 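Mean replicate viability versus non-targeting controls, turned into robust z-scores, plus drug synergy scores for BYL719, cetuximab and trametinib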. Reading the numbers: viability robust z-score, knock-down alone and viability, knock-down alone (DMSO): higher = more viable cells; synergy score with BYL719: higher = stronger synergy with drug (synthetic lethal). Rule for the call: 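a gene is called essential if its knock-down-alone viability z-score drops under -3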. Meaning of the calls: active = essential (knock-down alone); inactive = no change.
This is an unselected part of 794 reagents tested. Of all reagents, 9 (1.1%) got an active call. 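Calls rest on knock-down alone; synergy scores play no part in calls, and no gene passed the synergy cut.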 No viability above 1 is reported: the scale is capped. Not all columns of the deposit are shown. Reagent sequences are not shown. Not stated in the record: the amount of reagent, the time to read-out.

viability robust z-score, knock-down alone	viability, knock-down alone (DMSO) (fraction of control)	synergy score with BYL719	Outcome	Target gene	PubChem SID
0.789	1	-0.1	inactive	AXL (AXL receptor tyrosine kinase)	SID152148834
0.789	1	-0.0351	inactive	DLG1 (discs large MAGUK scaffold protein 1)	SID152148481
0.775	0.999	-0.0516	inactive	PLK3 (polo like kinase 3)	SID56478615
0.789	1	-0.158	inactive	MED24 (mediator complex subunit 24)	SID152152726
0.582	0.981	-0.221	inactive	MAP3K20 (mitogen-activated protein kinase kinase kinase 20)	SID152152597
0.789	1	-0.17	inactive	EIF2AK4 (eukaryotic translation initiation factor 2 alpha kinase 4)	SID152146907
0.789	1	-0.142	inactive	PKN1 (protein kinase N1)	SID56478783
0.789	1	-0.148	inactive	VRK3 (VRK serine/threonine kinase 3)	SID135620981
0.789	1	-0.161	inactive	MAP4K4 (mitogen-activated protein kinase kinase kinase kinase 4)	SID56478747
-0.232	0.906	-0.0722	inactive	PAK2 (p21 (RAC1) activated kinase 2)	SID135620709
0.789	1	-0.0447	inactive	LMTK3 (lemur tail kinase 3)	SID152150242
-0.0226	0.925	-0.2	inactive	DYRK1B	SID56478878
0.789	1	-0.156	inactive	CDKN1A (cyclin dependent kinase inhibitor 1A)	SID56478654
0.789	1	-0.206	inactive	ERBB2 (erb-b2 receptor tyrosine kinase 2)	SID152153302
-2.16	0.727	-0.0836	inactive	MPP3 (MAGUK p55 scaffold protein 3)	SID152152750
0.789	1	-0.148	inactive	TRPM6	SID56478975
-2.46	0.7	-0.142	inactive	MYLK2 (myosin light chain kinase 2)	SID56479029
0.789	1	0.0278	inactive	ADCK1 (aarF domain containing kinase 1)	SID135620966
0.435	0.967	-0.207	inactive	PANK1 (pantothenate kinase 1)	SID56478765
0.789	1	-0.19	inactive	CSNK1A1L (casein kinase 1 alpha 1 like)	SID135620867
0.789	1	-0.0714	inactive	BCKDK (branched chain keto acid dehydrogenase kinase)	SID135620909
0.789	1	-0.18	inactive	BRSK1 (BR serine/threonine kinase 1)	SID135620852

Part of the list above, limited to “viability robust z-score, knock-down alone”:
PAK2 (p21 (RAC1) activated kinase 2) [SID135620709]: -0.232
LMTK3 (lemur tail kinase 3) [SID152150242]: 0.789
DYRK1B [SID56478878]: -0.0226
CDKN1A (cyclin dependent kinase inhibitor 1A) [SID56478654]: 0.789

Next records follow:
viability robust z-score, knock-down alone	viability, knock-down alone (DMSO) (fraction of control)	synergy score with BYL719	Outcome	Target gene	PubChem SID
0.437	0.967	-0.0396	inactive	PIM2 (Pim-2 proto-oncogene, serine/threonine kinase)	SID56479034
0.611	0.984	-0.131	inactive	GUCY2C (guanylate cyclase 2C)	SID152148747
0.232	0.949	-0.0395	inactive	PRPS2 (phosphoribosyl pyrophosphate synthetase 2)	SID152153546
0.789	1	-0.0669	inactive	MAPK6 (mitogen-activated protein kinase 6)	SID56478707
0.789	1	-0.106	inactive	PHKG2 (phosphorylase kinase catalytic subunit gamma 2)	SID135620902
0.0761	0.934	-0.201	inactive	PFKFB4 (6-phosphofructo-2-kinase/fructose-2,6-biphosphatase 4)	SID152152940
0.789	1	-0.0359	inactive	MAPKAPK2 (MAPK activated protein kinase 2)	SID56478668
-0.112	0.917	-0.151	inactive	MAP3K6 (mitogen-activated protein kinase kinase kinase 6)	SID56478746
0.789	1	-0.182	inactive	CAMK2D (calcium/calmodulin dependent protein kinase II delta)	SID56478759
-0.0653	0.921	-0.148	inactive	PIK3C3 (phosphatidylinositol 3-kinase catalytic subunit type 3)	SID134310831
0.0271	0.93	-0.0332	inactive	CAMK1 (calcium/calmodulin dependent protein kinase I)	SID56478929
-0.365	0.893	-0.112	inactive	CDKN2D (cyclin dependent kinase inhibitor 2D)	SID135620643
0.789	1	-0.165	inactive	MECOM (MDS1 and EVI1 complex locus)	SID135621208
-2.19	0.725	-0.0843	inactive	MARK3 (microtubule affinity regulating kinase 3)	SID56478669
0.789	1	-0.162	inactive	GOLGA5 (golgin A5)	SID134315128
0.00315	0.927	-0.0589	inactive	RIOK2 (RIO kinase 2)	SID134310711
-1.46	0.792	-0.344	inactive	STK11 (serine/threonine kinase 11)	SID152153881
-0.182	0.91	-0.126	inactive	KIT (KIT proto-oncogene, receptor tyrosine kinase)	SID152151885
0.572	0.98	-0.222	inactive	DGKD (diacylglycerol kinase delta)	SID56479091
0.789	1	-0.0729	inactive	AK1 (adenylate kinase 1)	SID152147390
0.47	0.971	-0.171	inactive	TBCK (TBC1 domain containing kinase)	SID56479023
-0.542	0.877	-0.144	inactive	MAPK11 (mitogen-activated protein kinase 11)	SID56478748
0.691	0.991	-0.158	inactive	LRRK1 (leucine rich repeat kinase 1)	SID135620970
0.732	0.995	-0.0603	inactive	DGKH (diacylglycerol kinase eta)	SID134311961
0.643	0.987	-0.12	inactive	PTK2B (protein tyrosine kinase 2 beta)	SID56478543
0.289	0.954	-0.0764	inactive	ROCK2 (Rho associated coiled-coil containing protein kinase 2)	SID135620850
0.789	1	-0.137	inactive	NME7 (NME/NM23 family member 7)	SID56479121
0.195	0.945	-0.0469	inactive	CPNE3 (copine 3)	SID134315878
